Source: US20260008808 (published 2026)
* marks the point of attachment. Cbz = O=C(OCc1ccccc1)*; OtBu = CC(C)(C)O*

Test: general procedure: solution-phase peptide synthesis; N-methyl-N-p-toluenesulfonyl ethynylamine

With Cbz-AFME(OtBu)-OH the step yield (coupling step) was 92%.

In the case of carfilzomib, the isolated yield (whole synthesis, overall, scale of the general procedure 0.5 mmol) is reported as 70%.
